Consider 1 molecule from patent US20180264103A1 (ELITEIMMUNE, published 2018).

These are yes or no findings as the source states them, for the method shown. Some entries that bind do so weakly or less than the wild type.

This assay has as its target RSV-F (Strain RSS-2) (respiratory syncytial virus (Strain RSS-2)) (UniProt P11209). The experiment in a line: ELISA, antigen coated on plate, anti-human IgG-HRP detection. A general note: ELISA stands for enzyme-linked immunosorbent assay.

B1: fully human anti-RSV monoclonal antibody R66 (antibody, V domains shown)
VH: EVQLVESGGGLVQPGRSLRLSCTASGFTFADYSMTWVRQAPGKGLEWVGLIKRNAYGGTTEYAASVRGRFTISRDDSRSIAYLQMHSLKSEDTAVYFCLRGYSGYDWEGLDAFEVWGQGTMVTVSS
VL: DIQMTQSPSAMSASVGDRVTITCRASQGSSTYLAWFQQKPGKVPKRLIYAVSSLQSGVPSRFSGSGSGTEFTLTISSLQPEDSATYYCLQHNSFPLTFGQGTKVEIK
notes: expressed in 293T cells, Protein A purified; heavy chain about 50 kDa, light chain about 22 kDa; also called R66 antibody
Take B1: the binding entry is “binds”.
